In assay [1] the target is OsRLCK311 C-terminus (ΔN) fused to 3xFlag (rice (Oryza sativa)). Put plainly: affinity purification with mass spectrometry; anti-Flag magnetic beads on lysates of 3-week-old transgenic Arabidopsis seedlings overexpressing OsRLCK311-ΔN or -FL with 3xFlag; wild-type extracts as negative control; LC-MS/MS.
The target of assay [2] is OsRLCK311 full-length protein fused to 3xFlag (rice (Oryza sativa)). Described as above.

These are yes or no findings as the source states them, for the method shown. Binding seen in cells or lysates may run through a third protein. A yes stands for co-enrichment or nearness to the bait. Other partners may have been found.

B1: GRF10 (GRF 14-3-3 protein) (protein, UniProt P48347 1-254)
chain: MENEREKQVYLAKLSEQTERYDEMVEAMKKVAQLDVELTVEERNLVSVGYKNVIGARRASWRILSSIEQKEESKGNDENVKRLKNYRKRVEDELAKVCNDILSVIDKHLIPSSNAVESTVFFYKMKGDYYRYLAEFSSGAERKEAADQSLEAYKAAVAAAENGLAPTHPVRLGLALNFSVFYYEILNSPESACQLAKQAFDDAIAELDSLNEESYKDSTLIMQLLRDNLTLWTSDLNEEGDERTKGADEPQDEN
For B1, the binding result in assay [1] and in assay [2] was “binds” each time.

B2: Aquaporin AtPIP2;1 (endogenous) (protein, UniProt P43286 1-287)
chain: MAKDVEAVPGEGFQTRDYQDPPPAPFIDGAELKKWSFYRAVIAEFVATLLFLYITVLTVIGYKIQSDTDAGGVDCGGVGILGIAWAFGGMIFILVYCTAGISGGHINPAVTFGLFLARKVSLPRALLYIIAQCLGAICGVGFVKAFQSSYYTRYGGGANSLADGYSTGTGLAAEIIGTFVLVYTVFSATDPKRSARDSHVPVLAPLPIGFAVFMVHLATIPITGTGINPARSFGAAVIYNKSKPWDDHWIFWVGPFIGAAIAAFYHQFVLRASGSKSLGSFRSAANV
For the molecule B2, the binding entry in assay [1] and in assay [2] was “binds” in each case.

These data come from article PMC7650656.
